The other results are listed elsewhere or left out. Shown are side measurements of this screen, not its main read-out; they come without a call. The list favours compounds with an active or inconclusive main result. The note in brackets gives the kind of curve behind each potency; many fits are weak.
Assay: qHTS Assay to Find Inhibitors of Chronic Active B-Cell Receptor Signaling
Details: ABC-DLBCL IkBa-CBG/CBR reporter, luminescence ratio (green luciferase fused to IkBa over red control in TMD8 lymphoma cells), 4 h
In short: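 Doxycycline induced both beetle luciferases in TMD8 lymphoma cells; IKK-driven degradation limits the IkappaBalpha-fused green signal, while red luminescence normalises for cell number and nonspecific effects. Compounds tested up to 46 uM, 4 hrs.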

[1] = measured here: CBR red luminescence, cell number
[2] = measured here: IkBa-CBG green luminescence

| SMILES | AC50 [1] | AC50 [2] |
| --- | --- | --- |
| C/C(=N/NC(=O)c1ccc2c(c1)OCCO2)c1ccc([N+](=O)[O-])cc1 | 35.5 µM [falling, single point] |  |
| C=CCn1c(N)c(C(=O)NCc2cccnc2)sc1=S | 8.2 µM [rising, partial curve, poor fit] |  |
| COc1ccc2c(Cl)c(-c3nnc(SCC(=O)c4ccccc4)n3C)sc2c1 | 29.1 µM [rising, single point] |  |
| O=C(N/N=C/c1ccccc1OCC(=O)N1CCCC1)C(=O)Nc1ccccc1F | 0.146 µM [falling, full curve] |  |
| CCOC(=O)C1=C(C)NC(=S)N(C(C)=O)C1c1ccc(Cl)cc1 (stereo not drawn) | 0.326 µM [falling, full curve, poor fit] |  |
| CC(C)Cn1c(=O)c2c(nc3n2CCCN3CCc2ccccc2)n(C)c1=O | 11.2 µM [falling, partial curve, poor fit] |  |
| CC(C)(C)c1cccc(Cn2nnc3ccccc32)c1O | 13 µM [falling, partial curve, poor fit] |  |
| Fc1ccc(C(CCNCc2ccccn2)c2ccc(Cl)cc2)cc1 (stereo not drawn) | 35.5 µM [falling, single point] |  |
| O=C(NC(=S)NCCc1ccccc1)c1ccco1 | 3.16 µM [rising, partial curve, poor fit] |  |
| Cc1oc(-c2ccc3c(c2)OCCO3)cc1C(=O)O | 0.316 µM [falling, full curve, poor fit] |  |
| COC(=O)C1=C(N)Oc2cc(C)n(CC3CCCO3)c(=O)c2C1c1ccccc1OC (stereo not drawn) | 6.31 µM [falling, single point] |  |
| CCn1cnc2sc(C(=O)O)c(C)c2c1=O | 1.16 µM [rising, single point] |  |
| Fc1ccc(Nc2nc(SCc3cccc(Cl)c3)nc3ccccc23)cc1 |  | 17.8 µM [rising, single point] |
| O=C(Nc1cccc(C(=O)O)c1)Nc1ccc2c(c1)OCO2 | 0.447 µM [falling, full curve] |  |
| O=C1CC(c2ccco2)Cc2nc(N3CCc4ccccc4C3)ncc21 (stereo not drawn) | 2.24 µM [rising, full curve, poor fit] |  |
| CCCCNCc1ccc(OCc2ccc(Cl)nc2)c(OC)c1 | 14.1 µM [rising, single point] |  |
| c1ccc(-c2nc(-c3cccs3)[nH]c2-c2ccccc2)cc1 | 1.58 µM [falling, full curve, poor fit] |  |
| Cc1ccc2nc(Cl)c3cc(C(=O)NCCCN4CCCC4)sc3c2c1 | 15.8 µM [falling, partial curve, poor fit] |  |
| CCOc1ccc(NC(=O)CN2CCN(CC(=O)Nc3ccc(F)cc3)CC2)cc1 | 6.31 µM [falling, single point] |  |
| COC(=O)c1cc(-c2ccc(OC)c(OC)c2)n[nH]1 | 1.64 µM [rising, partial curve, poor fit] |  |
| C=CCC[C@@H](Cc1ccc(F)cc1)C(=O)OCCNC(=O)[C@@H](CC=C)CC(=O)N[C@H](CO)Cc1ccccc1 | 20.6 µM [falling, single point] |  |

Three compounds from above, ordered by formula weight, rising.

| SMILES | AC50 [1] | AC50 [2] |
| --- | --- | --- |
| CCn1cnc2sc(C(=O)O)c(C)c2c1=O | 1.16 µM [rising, single point] |  |
| Fc1ccc(C(CCNCc2ccccn2)c2ccc(Cl)cc2)cc1 (stereo not drawn) | 35.5 µM [falling, single point] |  |
| C=CCC[C@@H](Cc1ccc(F)cc1)C(=O)OCCNC(=O)[C@@H](CC=C)CC(=O)N[C@H](CO)Cc1ccccc1 | 20.6 µM [falling, single point] |  |

The listing continues.

| SMILES | AC50 [1] | AC50 [2] |
| --- | --- | --- |
| O=C(c1ccc(COCC(F)(F)F)o1)N1CCCCCC1 | 14.1 µM [rising, single point] |  |
| CS(=O)(=O)c1ccc(C(=O)OCC(=O)NNC(=O)COc2ccc(Cl)cc2)cc1 | 2.31 µM [rising, full curve, poor fit] |  |
| Cc1ccc(OCCCCn2cnc3ccccc32)cc1 | 35.5 µM [falling, single point] |  |
| CN(C)c1ccc(NC(=O)c2ccc3nc[nH]c3c2)cc1 | 15.8 µM [falling, single point] |  |
| C=CCOc1ccccc1CNc1ccc2c(c1)OCCO2 | 35.5 µM [falling, single point] |  |
| CC(=O)c1cc(-c2ccccc2)n(CC(=O)N2CCC(C)CC2)c1C | 14.6 µM [rising, partial curve, poor fit] |  |
| Cc1ccccc1NS(=O)(=O)c1cc(C(=O)NCCC2=CCCCC2)ccc1Cl | 7.08 µM [falling, partial curve, poor fit] |  |
| Clc1cccc(CN2CCc3c([nH]c4ccccc34)C2)c1 | 8.91 µM [falling, partial curve, poor fit] |  |
| Cc1ccc(C(=O)NC(=S)Nc2ccccc2C(F)(F)F)c(C)c1 | 0.231 µM [rising, full curve, poor fit] |  |
| CN(C)c1nc(OCCOC(=O)Nc2ccc(Cl)cc2Cl)nc(N(C)C)n1 | 0.00411 µM [rising, full curve, poor fit] |  |
| Cc1cc(-c2nnc(SCC(=O)Nc3nc(-c4ccc(Cl)cc4)cs3)o2)no1 | 8.91 µM [rising, partial curve, poor fit] |  |
| Nc1ccc(C(=O)N/N=C/c2c[nH]c3ccccc23)cc1 | 11.2 µM [falling, partial curve, poor fit] |  |
| COc1ccccc1NC(=S)NNC(=O)c1nn(C)cc1Cl | 12.6 µM [falling, partial curve] |  |
| COc1ccc(C(Nc2ccccn2)c2c(NC(=O)c3ccco3)sc(C)c2C)cc1OC (stereo not drawn) | 32.6 µM [falling, single point] |  |
| O=C(CSc1nnc(-c2ccccc2)c2ccccc12)NCC1CCCO1 (stereo not drawn) | 35.5 µM [falling, single point] |  |
| Cc1c(-c2ccccc2)[nH]n2c(=O)c3c(nc12)CCCC3 | 25.9 µM [rising, partial curve] |  |
| COCCNC(=O)/C(C#N)=C\c1ccc(CNC(=O)C(=O)Nc2ccc(C)c(C)c2)o1 | 7.08 µM [rising, partial curve, poor fit] |  |
| COc1ccc(C2SCCN2C(=O)c2ccc([N+](=O)[O-])cc2)cc1 (stereo not drawn) | 6.31 µM [rising, single point] |  |
| Cc1cc(C)c(S(=O)(=O)N2CCCCCC2)cc1Br | 5.01 µM [rising, partial curve, poor fit] |  |
| CC(=O)N1CCC(=NNc2nc3ccccc3s2)CC1 | 17.8 µM [falling, single point] |  |
| CCOC(=O)c1c(CC(C)C)csc1/N=C/C1=C(O)CCCC1=O | 14.1 µM [falling, single point] | 15.8 µM [rising, single point] |

Reference: PubChem BioAssay AID493014 (National Center for Advancing Translational Sciences (NCATS), 2011)
